The target in experiment [1] is Yin Yang 1 (YY1), endogenous in CRC cells (human (endogenous in HCT116, LOVO, DLD1)) (UniProt P25490). Nature of the experiment: co-IP; endogenous proteins in HCT116, LOVO and DLD1 cell lysates; Protein A/G magnetic beads with primary antibody, overnight at 4 °C, washed with 1 x PBS + 0.5% Tween-20, pH 7.4; immunoblot.
The target in experiment [2] is Ubiquitin-specific protease 7 (USP7), endogenous in CRC cells (human (endogenous in HCT116, LOVO, DLD1)) (UniProt Q93009). Described as above.
Experiment [3] concerns the target HA-USP7 (ubiquitin-specific protease 7), exogenous in HEK 293T cells (human) (UniProt Q93009). The experiment is described as follows: co-IP; HEK 293T cell extracts with exogenous Flag-YY1 and HA-USP7; magnetic beads, overnight at 4 °C, washed with 1 x PBS + 0.5% Tween-20, pH 7.4; immunoblot.
The target in experiment [4] is Flag-YY1 (Yin Yang 1), exogenous in HEK 293T cells (human) (UniProt P25490). Described as above.

Protein sequences, listed by entry. Tags and fused reporters are not part of them.
UniProt P25490: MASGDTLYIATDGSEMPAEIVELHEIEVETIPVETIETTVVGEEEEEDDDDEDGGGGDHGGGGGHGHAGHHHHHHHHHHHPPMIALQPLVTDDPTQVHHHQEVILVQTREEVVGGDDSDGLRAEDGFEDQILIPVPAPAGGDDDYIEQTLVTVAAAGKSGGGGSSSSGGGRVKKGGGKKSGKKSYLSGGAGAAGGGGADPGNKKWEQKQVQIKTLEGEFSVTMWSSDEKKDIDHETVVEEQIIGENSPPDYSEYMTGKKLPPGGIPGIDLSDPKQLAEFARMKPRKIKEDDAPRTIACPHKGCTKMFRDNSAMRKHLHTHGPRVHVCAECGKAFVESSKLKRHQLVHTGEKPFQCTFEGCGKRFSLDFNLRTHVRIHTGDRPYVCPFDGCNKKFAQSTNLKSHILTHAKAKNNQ
UniProt Q93009: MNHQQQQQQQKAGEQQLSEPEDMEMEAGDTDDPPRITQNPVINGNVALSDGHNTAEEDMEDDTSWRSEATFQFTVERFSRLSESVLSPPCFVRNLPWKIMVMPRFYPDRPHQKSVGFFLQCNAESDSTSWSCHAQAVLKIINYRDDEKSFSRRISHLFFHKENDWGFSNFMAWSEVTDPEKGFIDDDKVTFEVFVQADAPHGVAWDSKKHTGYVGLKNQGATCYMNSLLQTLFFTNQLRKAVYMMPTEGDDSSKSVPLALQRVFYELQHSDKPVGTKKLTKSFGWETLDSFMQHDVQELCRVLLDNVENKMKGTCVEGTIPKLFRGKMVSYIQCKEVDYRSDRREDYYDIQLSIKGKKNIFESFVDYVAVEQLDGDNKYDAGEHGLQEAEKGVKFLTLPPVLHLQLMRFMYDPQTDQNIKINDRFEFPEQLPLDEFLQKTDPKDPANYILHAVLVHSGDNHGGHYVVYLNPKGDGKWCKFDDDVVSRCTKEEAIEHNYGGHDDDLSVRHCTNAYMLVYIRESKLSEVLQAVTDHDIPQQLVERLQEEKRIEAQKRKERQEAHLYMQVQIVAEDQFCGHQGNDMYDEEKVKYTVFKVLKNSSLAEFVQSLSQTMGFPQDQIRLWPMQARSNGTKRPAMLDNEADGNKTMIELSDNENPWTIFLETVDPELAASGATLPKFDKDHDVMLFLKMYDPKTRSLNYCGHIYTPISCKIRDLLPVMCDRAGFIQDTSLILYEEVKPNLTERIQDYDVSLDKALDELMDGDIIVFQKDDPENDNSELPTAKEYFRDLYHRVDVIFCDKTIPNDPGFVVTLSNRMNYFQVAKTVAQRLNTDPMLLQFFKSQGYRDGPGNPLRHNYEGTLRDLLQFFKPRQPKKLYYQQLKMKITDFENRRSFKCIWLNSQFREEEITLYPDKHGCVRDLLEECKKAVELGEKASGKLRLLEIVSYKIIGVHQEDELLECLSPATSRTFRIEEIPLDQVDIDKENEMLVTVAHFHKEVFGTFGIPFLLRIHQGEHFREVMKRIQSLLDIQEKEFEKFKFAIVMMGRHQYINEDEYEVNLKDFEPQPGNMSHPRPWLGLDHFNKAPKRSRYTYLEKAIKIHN

These are yes or no findings as the source states them, for the method shown. In cells and extracts the contact can be indirect. Some results given as binding are weak or reduced against the parent protein; the word gives no strength.

For “Ubiquitin-specific protease 7 (USP7), endogenous in CRC cells (from UniProt Q93009 1-1102) (enzyme)”, the binding result in experiment [1] was “binds”.

Turning to “Yin Yang 1 (YY1), endogenous in CRC cells (from UniProt P25490 1-414)”, the binding result in experiment [2] is given as “binds”.

Take “Flag-YY1 (Yin Yang 1), exogenous in HEK 293T cells (from UniProt P25490 1-414)”: the binding entry in experiment [3] was “binds”.

As to “HA-USP7 (ubiquitin-specific protease 7), exogenous in HEK 293T cells (from UniProt Q93009 1-1102) (enzyme)”, the binding result in experiment [4] was “binds”.

These data come from PMC11106261.
